In PubChem BioAssay AID2685 (National Center for Advancing Translational Sciences (NCATS), 2010):
Some of the results follow. The main result of the screen is listed elsewhere. These columns were measured beside it and carry no call. Most of these compounds were active or inconclusive in the main read-out, so they are no random draw. Words in brackets tell the shape of the fitted curve; partial curves, single points and poor fits give uncertain potencies.

Assay: qHTS Assay for Lipid Storage Modulators in Drosophila S3 Cells;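 for cell number change: cells counted by Cell Tracker Red CMTPX staining in the red channel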
Settings: BODIPY lipid droplet fluorescence, 18-24 h; for cell number change: measured here: cell count max response, cells fed with added oleic acid
Method in brief: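 Drosophila S3 cells got compounds at several concentrations plus oleic acid (400 uM solution). Laser-scanning cytometry with 488 nm excitation read lipid droplets at 500-530 nm and cells at 575-640 nm. Percent activity was relative to 20 uM Triacsin C.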

[1] = measured here: lipid fluorescence (Fed channel) AC50, cells fed with added oleic acid
[2] = measured here: cell number channel AC50, cells fed with added oleic acid

Row | SMILES | cell number change [%] | AC50 [1] | AC50 [2]
1 | Cc1oc2c(c1C(=O)c1ccccc1)C(=O)C(=O)c1ccccc1-2 | -78.5 | 29.1 µM [falling, single point] | 
2 | COc1cccc(OCc2cc(C(=O)N(C)CCOc3ccc(C)cc3)no2)c1 |  |  | 1.84 µM [falling, partial curve]
3 | O=C(COc1ccccc1[N+](=O)[O-])Nc1cccc(C(=O)Nc2ccccc2C(=O)O)c1 | 22.2 |  | 
4 | CC1CC(N(C(=O)c2ccco2)c2ccccc2)c2ccccc2N1C(=O)c1ccco1 (stereo not drawn) | 10.7 | 0.58 µM [rising, single point] | 
5 | COC(=O)c1cc(Br)c(=O)n(-c2ccccn2)c1 | -33.6 |  | 3.26 µM [falling, full curve, poor fit]
6 | O=C(NCc1ccccc1Cl)C1=CC=CN2CCS(=O)(=O)N=C12 | -0.648 | 3.26 µM [rising, partial curve, poor fit] | 
7 | Cc1ccc(S(=O)(=O)N2CCOCC2)cc1C(=O)OCC(=O)NC1CC1 | 1.3 | 0.92 µM [falling, full curve] | 
8 | CCCN(CCC)S(=O)(=O)c1cccc(C(=O)Nc2ccc3c(c2)OCO3)c1 | -38.3 | 29.1 µM [falling, single point] | 29.1 µM [falling, single point]
9 | Cc1ccc2cc(NC(=O)c3ccccc3)ccc2n1 | 20.7 | 0.0146 µM [rising, full curve, poor fit] | 0.259 µM [rising, full curve, poor fit]
10 | CCn1nc2cc(C(=O)NCc3cc(C(F)(F)F)cc(C(F)(F)F)c3)ccc2c1OC | 2.28 |  | 
11 | O=c1c2cnn(-c3ccccc3)c2ncn1Cc1ccco1 |  | 0.58 µM [falling, single point] | 
12 | N#CC1=C(N)N2C(=C(C#N)C13CCN(Cc1ccccc1)CC3)Nc1ccccc12 | 121 | 2.06 µM [rising, partial curve] | 23.1 µM [rising, single point]
13 | Cc1cc(C(=O)N2CCCC(N3CCN(c4cccc(C(F)(F)F)c4)CC3)C2)no1 (stereo not drawn) | 30.3 | 29.1 µM [rising, single point] | 14.6 µM [rising, partial curve, poor fit]
14 | C/C(=N\NC(=O)c1c[nH]c2ccccc12)c1ccc2c(c1)OCO2 | 24.7 | 4.11 µM [rising, partial curve, poor fit] | 4.11 µM [rising, single point]
15 | O=C(c1ccc(=O)[nH]c1)N1CCN(S(=O)(=O)c2cc(C(F)(F)F)ccc2Cl)CC1 | -6.58 |  | 
16 | CN(C)C(CNS(=O)(=O)c1ccc(F)cc1)c1cccnc1 (stereo not drawn) | -0.271 | 13 µM [rising, partial curve] | 
17 | c1ccc2[nH]c(CSc3nnc(-c4ccncc4)o3)nc2c1 | -3.05 | 0.00651 µM [rising, full curve, poor fit] | 
18 | Nc1ccc(-c2c3ccc(=O)cc-3oc3cc(O)ccc23)cc1C(=O)O | -94.4 | 2.31 µM [falling, full curve] | 9.2 µM [falling, partial curve]
19 | CCN(CC)c1ccc(C(=O)OCC(=O)NC2CCCCC2C)cc1 (stereo not drawn) | -0.424 |  | 
20 | CN1CCN(c2oc(-c3cccs3)nc2S(=O)(=O)c2ccccc2)CC1 | 37.6 |  | 0.00517 µM [rising, full curve, poor fit]
21 | CC1(c2ccc(OC(F)F)cc2)NC(=O)N(CC(=O)NCCC2=CCCCC2)C1=O (stereo not drawn) | 5.94 | 0.411 µM [falling, full curve, poor fit] | 

2 entries from above, set out differently.
N#CC1=C(N)N2C(=C(C#N)C13CCN(Cc1ccccc1)CC3)Nc1ccccc12
  cell number change [%]: 121; AC50 [1]: 2.06 µM [rising, partial curve]; AC50 [2]: 23.1 µM [rising, single point]
Cc1cc(C(=O)N2CCCC(N3CCN(c4cccc(C(F)(F)F)c4)CC3)C2)no1 (stereo not drawn)
  cell number change [%]: 30.3; AC50 [1]: 29.1 µM [rising, single point]; AC50 [2]: 14.6 µM [rising, partial curve, poor fit]

Additional compounds:

Row | SMILES | cell number change [%] | AC50 [1] | AC50 [2]
22 | NCc1nc(-c2ccc(Cl)cc2)no1 | -19.1 | 29.1 µM [falling, single point] | 
23 | COc1ccc(C)cc1NC(=O)CCN1CCN(C/C=C/c2ccccc2)CC1 | 0.293 | 2.06 µM [falling, partial curve] | 
24 | CS(=O)(=O)c1ccc(C(=O)OC2CCOC2=O)cc1[N+](=O)[O-] (stereo not drawn) | -6.41 | 4.11 µM [rising, partial curve, poor fit] | 
25 | CCCN1CCN(S(=O)(=O)c2cc3c(cc2C)NC(=O)CO3)CC1 | 18.7 | 29.1 µM [rising, single point] | 
26 | CCC1Oc2ccccc2N(CC(=O)NCCCN2CCN(Cc3ccccc3)CC2)C1=O (stereo not drawn) | 2.36 | 18.4 µM [rising, partial curve, poor fit] | 
27 | O=C(NCCC1CCCCN1S(=O)(=O)c1cccs1)C(=O)Nc1cccc(F)c1 (stereo not drawn) | -105 |  | 18.4 µM [falling, partial curve]
28 | Cc1cccc(-n2nc3c(c2NC(=O)c2cc4ccccc4o2)CS(=O)(=O)C3)c1 | -14.1 | 18.4 µM [falling, single point] | 
29 | COc1cccc(NC(=O)C2CCCC2)c1 | -21.6 | 25.9 µM [rising, single point] | 
30 | Cc1c(C)n(Cc2ccc(F)cc2)c2ccc(C(=O)N3CCN(c4ccccn4)CC3)cc12 | -5.77 |  | 
31 | COc1ccc(CN2C(=O)CCC2(C)C(=O)NCc2cccnc2)c(OC)c1 (stereo not drawn) | 17.5 | 2.31 µM [rising, partial curve] | 
32 | COc1ccccc1C/C(N)=N/OC(=O)c1cccc([N+](=O)[O-])c1C | 32.1 | 10.3 µM [rising, partial curve] | 7.31 µM [rising, partial curve]
33 | COc1ccc(OC)c(/C=N/NC(=O)c2ccc[n+](CC(=O)c3ccccc3)c2)c1 | 17.5 | 14.6 µM [rising, single point] | 
34 | COc1ccccc1-c1n[nH]c(=S)n1Cc1ccco1 | -3.01 |  | 6.51 µM [rising, partial curve, poor fit]
35 | CNc1nc(Cl)c(SC)c(NC2CCCCC2)n1 | -4.56 |  | 
36 | NS(=O)(=O)c1ccc(NC(=O)c2cc(-c3cc(Cl)ccc3O)n[nH]2)cc1 | 370 |  | 4.11 µM [falling, single point]
37 | O=C(CCCSc1ccc(Cl)cc1)Nc1ccccc1O | 42.5 | 0.58 µM [rising, single point] | 29.1 µM [rising, single point]
38 | Cc1ccccc1NC(=O)C(C)O/N=C/c1cccc([N+](=O)[O-])c1 (stereo not drawn) |  | 3.26 µM [rising, partial curve] | 0.92 µM [rising, partial curve]
39 | CCCCN1C(=O)c2ccc(C(=O)NC3=NCCS3)cc2C1=O | -23.8 | 1.16 µM [rising, full curve] | 
40 | COc1ccc(C(=O)COC(=O)/C=C/c2ccco2)cc1F | -47.6 | 0.92 µM [falling, full curve, poor fit] | 0.92 µM [falling, full curve, poor fit]
41 | COc1ccc(NC(=O)NCCCN2CCC(Cc3ccccc3)CC2)cc1 |  |  | 6.51 µM [rising, single point]
42 | CC(C)(C)c1ccc(C(=O)N2CCC(=O)N(C(CO)Cc3ccccc3)CC2)cc1 (stereo not drawn) | -4.68 | 14.6 µM [falling, single point] | 

Row | SMILES | cell number change [%] | AC50 [1] | AC50 [2]
43 | NS(=O)(=O)c1cccc(NC(=O)COC(=O)CN2C(=O)C3CC=CCC3C2=O)c1 (stereo not drawn) | 3.97 |  | 
44 | CC(CNC(=O)c1ccc(NC2=NC3CS(=O)(=O)CC3S2)cc1)c1ccccc1 (stereo not drawn) | -2.02 |  | 
45 | Cc1ccc(/C=C2\C(=O)NC(=O)N2C)o1 |  |  | 0.731 µM [falling, full curve, poor fit]
46 | CC(C)(C)NC(=O)NC(=O)CN1CCN(S(=O)(=O)/C=C/c2ccccc2)CC1 | 3.36 |  | 
47 | CCOC(=O)c1c(NC(=O)C(C)Sc2cn(C)c3ccccc23)sc2c1CCC2 (stereo not drawn) | -1.54 | 10.3 µM [falling, partial curve] | 
48 | COc1ccc(OC)c(C(=O)N2CCCC(Nc3ccc(F)cc3)C2)c1 (stereo not drawn) | -16.8 | 0.58 µM [falling, single point] | 
49 | O=C(NCc1ccc(F)cc1)c1ccc(CS(=O)Cc2ccccc2Cl)o1 (stereo not drawn) | -16.2 | 4.11 µM [rising, single point] | 
50 | O=C(CCc1nc2ccccc2c(=O)[nH]1)N1CCN(c2ccc(F)cc2)CC1 | 1.69 |  | 1.16 µM [rising, single point]
51 | COc1cc(C(=O)NC2CCCc3ccccc32)cc(OC)c1OC (stereo not drawn) | -34.1 | 29.1 µM [rising, single point] | 4.61 µM [falling, partial curve, poor fit]
52 | CCCN1CCN(C2CCCCC2NS(=O)(=O)c2ccccc2)CC1 (stereo not drawn) | 22.5 |  | 
53 | CCOc1ccc2nc(C(C)O)[nH]c2c1 (stereo not drawn) | 0.671 |  | 
54 | Cc1ccc(C(C)C)c(OCC(=O)NN=C(CCl)CCl)c1 | 18.8 | 1.16 µM [rising, partial curve, poor fit] | 3.66 µM [rising, partial curve]
55 | Cc1ccc(/C(N)=N/OC(=O)c2ccc(Cl)cc2Cl)cc1 | 13.7 |  | 
56 | Cc1cccc(-n2c(O)c(C=Nc3ccccc3N)c(=O)[nH]c2=O)c1 | -1.9 | 2.06 µM [rising, full curve] | 
57 | OC1(c2ccc(F)cc2)CCN(Cc2cccnc2)CC1 | 14.4 |  | 
58 | N/C(=N\OC(=O)c1ccoc1)c1ccc(Br)cc1 | 7.18 | 35.5 µM [rising, single point] | 
59 | COc1ccc(-c2c(-c3ccccc3OC)sc3ccccc23)cc1 | 22.7 | 29.1 µM [rising, single point] | 
60 | CSc1ccc(S(=O)(=O)NC(C)c2ccccc2)cc1 (stereo not drawn) | 135 | 0.0058 µM [rising, full curve, poor fit] | 29.1 µM [rising, single point]
61 | COc1cc(/C=C2/SC(=S)N(Cc3ccccc3)C2=O)cc(Cl)c1O | -97.2 | 9.2 µM [rising, partial curve] | 1.46 µM [falling, full curve]

18 of these compounds in another layout.
Row,SMILES,cell number change [%],AC50 [1],AC50 [2]
41,COc1ccc(NC(=O)NCCCN2CCC(Cc3ccccc3)CC2)cc1,,,"6.51 µM [rising, single point]"
42,CC(C)(C)c1ccc(C(=O)N2CCC(=O)N(C(CO)Cc3ccccc3)CC2)cc1 (stereo not drawn),-4.68,"14.6 µM [falling, single point]",
43,NS(=O)(=O)c1cccc(NC(=O)COC(=O)CN2C(=O)C3CC=CCC3C2=O)c1 (stereo not drawn),3.97,,
44,CC(CNC(=O)c1ccc(NC2=NC3CS(=O)(=O)CC3S2)cc1)c1ccccc1 (stereo not drawn),-2.02,,
45,Cc1ccc(/C=C2\C(=O)NC(=O)N2C)o1,,,"0.731 µM [falling, full curve, poor fit]"
46,CC(C)(C)NC(=O)NC(=O)CN1CCN(S(=O)(=O)/C=C/c2ccccc2)CC1,3.36,,
47,CCOC(=O)c1c(NC(=O)C(C)Sc2cn(C)c3ccccc23)sc2c1CCC2 (stereo not drawn),-1.54,"10.3 µM [falling, partial curve]",
48,COc1ccc(OC)c(C(=O)N2CCCC(Nc3ccc(F)cc3)C2)c1 (stereo not drawn),-16.8,"0.58 µM [falling, single point]",
49,O=C(NCc1ccc(F)cc1)c1ccc(CS(=O)Cc2ccccc2Cl)o1 (stereo not drawn),-16.2,"4.11 µM [rising, single point]",
51,COc1cc(C(=O)NC2CCCc3ccccc32)cc(OC)c1OC (stereo not drawn),-34.1,"29.1 µM [rising, single point]","4.61 µM [falling, partial curve, poor fit]"
52,CCCN1CCN(C2CCCCC2NS(=O)(=O)c2ccccc2)CC1 (stereo not drawn),22.5,,
53,CCOc1ccc2nc(C(C)O)[nH]c2c1 (stereo not drawn),0.671,,
54,Cc1ccc(C(C)C)c(OCC(=O)NN=C(CCl)CCl)c1,18.8,"1.16 µM [rising, partial curve, poor fit]","3.66 µM [rising, partial curve]"
55,Cc1ccc(/C(N)=N/OC(=O)c2ccc(Cl)cc2Cl)cc1,13.7,,
56,Cc1cccc(-n2c(O)c(C=Nc3ccccc3N)c(=O)[nH]c2=O)c1,-1.9,"2.06 µM [rising, full curve]",
57,OC1(c2ccc(F)cc2)CCN(Cc2cccnc2)CC1,14.4,,
58,N/C(=N\OC(=O)c1ccoc1)c1ccc(Br)cc1,7.18,"35.5 µM [rising, single point]",
59,COc1ccc(-c2c(-c3ccccc3OC)sc3ccccc23)cc1,22.7,"29.1 µM [rising, single point]",
